Data taken from patent US11649396B2, “Associative copolymers with hydrophobic quaternized (meth)acrylamide and (meth)acrylic acid derivatives” (BASF SE, priority 2018, dated 2023).
The name of at least one read-out is uncertain.

Experiment: Solubilization of the monomer by first dissolving in ethanol, then adding to the monomer solution
Format: physicochemical
Conditions: monomer dissolved in ethanol, then added to the monomer solution

Row | Structure (SMILES) | solubilization in monomer solution after first dissolving in ethanol
1 | C=C(C)C(=O)OCCC[N+](C)(C)CCCCCCCCCCCC [Monomer 1] | a fine precipitate was formed
2 | C=CC(=O)OCCC[N+](C)(C)CCCCCCCCCCCC [Monomer 2] | The same applied
